{"sequences": {"note": "Chains of the proteins cited; added tags and fusions are not shown. Residues count along the entry.", "UniProt P0C2J9, residues 2-470": "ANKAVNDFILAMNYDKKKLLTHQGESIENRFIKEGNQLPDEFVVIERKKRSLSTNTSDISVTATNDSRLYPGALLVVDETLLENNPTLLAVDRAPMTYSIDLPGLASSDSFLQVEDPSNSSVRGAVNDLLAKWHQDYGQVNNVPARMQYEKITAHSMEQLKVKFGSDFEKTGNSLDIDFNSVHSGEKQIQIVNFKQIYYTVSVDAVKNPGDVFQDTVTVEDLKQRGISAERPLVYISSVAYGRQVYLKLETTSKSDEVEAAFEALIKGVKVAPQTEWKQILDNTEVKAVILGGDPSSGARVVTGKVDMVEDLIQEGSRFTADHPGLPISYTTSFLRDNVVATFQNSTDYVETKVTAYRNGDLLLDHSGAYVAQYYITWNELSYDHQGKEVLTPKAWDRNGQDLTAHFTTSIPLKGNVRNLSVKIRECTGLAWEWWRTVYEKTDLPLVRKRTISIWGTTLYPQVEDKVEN"}, "source": "paper PMC4585913", "about": "“Crystal structure of Streptococcus pneumoniae pneumolysin provides key insights into early steps of pore formation” (Scientific Reports, 2015)", "key": {"[1]": {"target": "Pneumolysin (Hexahis-PLY, wild type) (Streptococcus pneumoniae) (UniProt P0C2J9)", "assay": "dynamic light scattering; PLY 0.2 mg/ml in 150 mM NaCl, 10 mM Tris-HCl pH 7.5, 2 mM EDTA; incubated at 25 °C for 10 minutes; both purified"}, "[2]": {"target": "Pneumolysin (Hexahis-PLY, wild type) (Streptococcus pneumoniae) (UniProt P0C2J9)", "assay": "SEC-SAXS; PLY 80 ul at 5.35 mg/ml in 20 mM Tris-HCl pH 7.5, 150 mM NaCl, 1 mM DTT; in-line gel filtration at 298 K; only samples incubated at 25 °C; both purified"}}, "note": "These are yes or no findings as the source states them, for the method shown.", "data": [{"substance": "Pneumolysin (Hexahis-PLY, wild type) (from UniProt P0C2J9 2-470)", "values": [{"measurement": "binding", "setting": "[1]", "value": "no binding (condition: at 25 °C (0.2 mg/ml))"}, {"measurement": "binding", "setting": "[2]", "value": "no binding (condition: at 25 °C (5.35 mg/ml))"}]}]}
